Source: article PMC5207133
Results are given in words; binding and its absence hold for the method and conditions named. For part of these data: Where a sequence is shown, tags or fusion partners need not be part of it.

By UniProt entry, the sequences of proteins in these tests, tags left out. Residues count along the entry.
UniProt P78527: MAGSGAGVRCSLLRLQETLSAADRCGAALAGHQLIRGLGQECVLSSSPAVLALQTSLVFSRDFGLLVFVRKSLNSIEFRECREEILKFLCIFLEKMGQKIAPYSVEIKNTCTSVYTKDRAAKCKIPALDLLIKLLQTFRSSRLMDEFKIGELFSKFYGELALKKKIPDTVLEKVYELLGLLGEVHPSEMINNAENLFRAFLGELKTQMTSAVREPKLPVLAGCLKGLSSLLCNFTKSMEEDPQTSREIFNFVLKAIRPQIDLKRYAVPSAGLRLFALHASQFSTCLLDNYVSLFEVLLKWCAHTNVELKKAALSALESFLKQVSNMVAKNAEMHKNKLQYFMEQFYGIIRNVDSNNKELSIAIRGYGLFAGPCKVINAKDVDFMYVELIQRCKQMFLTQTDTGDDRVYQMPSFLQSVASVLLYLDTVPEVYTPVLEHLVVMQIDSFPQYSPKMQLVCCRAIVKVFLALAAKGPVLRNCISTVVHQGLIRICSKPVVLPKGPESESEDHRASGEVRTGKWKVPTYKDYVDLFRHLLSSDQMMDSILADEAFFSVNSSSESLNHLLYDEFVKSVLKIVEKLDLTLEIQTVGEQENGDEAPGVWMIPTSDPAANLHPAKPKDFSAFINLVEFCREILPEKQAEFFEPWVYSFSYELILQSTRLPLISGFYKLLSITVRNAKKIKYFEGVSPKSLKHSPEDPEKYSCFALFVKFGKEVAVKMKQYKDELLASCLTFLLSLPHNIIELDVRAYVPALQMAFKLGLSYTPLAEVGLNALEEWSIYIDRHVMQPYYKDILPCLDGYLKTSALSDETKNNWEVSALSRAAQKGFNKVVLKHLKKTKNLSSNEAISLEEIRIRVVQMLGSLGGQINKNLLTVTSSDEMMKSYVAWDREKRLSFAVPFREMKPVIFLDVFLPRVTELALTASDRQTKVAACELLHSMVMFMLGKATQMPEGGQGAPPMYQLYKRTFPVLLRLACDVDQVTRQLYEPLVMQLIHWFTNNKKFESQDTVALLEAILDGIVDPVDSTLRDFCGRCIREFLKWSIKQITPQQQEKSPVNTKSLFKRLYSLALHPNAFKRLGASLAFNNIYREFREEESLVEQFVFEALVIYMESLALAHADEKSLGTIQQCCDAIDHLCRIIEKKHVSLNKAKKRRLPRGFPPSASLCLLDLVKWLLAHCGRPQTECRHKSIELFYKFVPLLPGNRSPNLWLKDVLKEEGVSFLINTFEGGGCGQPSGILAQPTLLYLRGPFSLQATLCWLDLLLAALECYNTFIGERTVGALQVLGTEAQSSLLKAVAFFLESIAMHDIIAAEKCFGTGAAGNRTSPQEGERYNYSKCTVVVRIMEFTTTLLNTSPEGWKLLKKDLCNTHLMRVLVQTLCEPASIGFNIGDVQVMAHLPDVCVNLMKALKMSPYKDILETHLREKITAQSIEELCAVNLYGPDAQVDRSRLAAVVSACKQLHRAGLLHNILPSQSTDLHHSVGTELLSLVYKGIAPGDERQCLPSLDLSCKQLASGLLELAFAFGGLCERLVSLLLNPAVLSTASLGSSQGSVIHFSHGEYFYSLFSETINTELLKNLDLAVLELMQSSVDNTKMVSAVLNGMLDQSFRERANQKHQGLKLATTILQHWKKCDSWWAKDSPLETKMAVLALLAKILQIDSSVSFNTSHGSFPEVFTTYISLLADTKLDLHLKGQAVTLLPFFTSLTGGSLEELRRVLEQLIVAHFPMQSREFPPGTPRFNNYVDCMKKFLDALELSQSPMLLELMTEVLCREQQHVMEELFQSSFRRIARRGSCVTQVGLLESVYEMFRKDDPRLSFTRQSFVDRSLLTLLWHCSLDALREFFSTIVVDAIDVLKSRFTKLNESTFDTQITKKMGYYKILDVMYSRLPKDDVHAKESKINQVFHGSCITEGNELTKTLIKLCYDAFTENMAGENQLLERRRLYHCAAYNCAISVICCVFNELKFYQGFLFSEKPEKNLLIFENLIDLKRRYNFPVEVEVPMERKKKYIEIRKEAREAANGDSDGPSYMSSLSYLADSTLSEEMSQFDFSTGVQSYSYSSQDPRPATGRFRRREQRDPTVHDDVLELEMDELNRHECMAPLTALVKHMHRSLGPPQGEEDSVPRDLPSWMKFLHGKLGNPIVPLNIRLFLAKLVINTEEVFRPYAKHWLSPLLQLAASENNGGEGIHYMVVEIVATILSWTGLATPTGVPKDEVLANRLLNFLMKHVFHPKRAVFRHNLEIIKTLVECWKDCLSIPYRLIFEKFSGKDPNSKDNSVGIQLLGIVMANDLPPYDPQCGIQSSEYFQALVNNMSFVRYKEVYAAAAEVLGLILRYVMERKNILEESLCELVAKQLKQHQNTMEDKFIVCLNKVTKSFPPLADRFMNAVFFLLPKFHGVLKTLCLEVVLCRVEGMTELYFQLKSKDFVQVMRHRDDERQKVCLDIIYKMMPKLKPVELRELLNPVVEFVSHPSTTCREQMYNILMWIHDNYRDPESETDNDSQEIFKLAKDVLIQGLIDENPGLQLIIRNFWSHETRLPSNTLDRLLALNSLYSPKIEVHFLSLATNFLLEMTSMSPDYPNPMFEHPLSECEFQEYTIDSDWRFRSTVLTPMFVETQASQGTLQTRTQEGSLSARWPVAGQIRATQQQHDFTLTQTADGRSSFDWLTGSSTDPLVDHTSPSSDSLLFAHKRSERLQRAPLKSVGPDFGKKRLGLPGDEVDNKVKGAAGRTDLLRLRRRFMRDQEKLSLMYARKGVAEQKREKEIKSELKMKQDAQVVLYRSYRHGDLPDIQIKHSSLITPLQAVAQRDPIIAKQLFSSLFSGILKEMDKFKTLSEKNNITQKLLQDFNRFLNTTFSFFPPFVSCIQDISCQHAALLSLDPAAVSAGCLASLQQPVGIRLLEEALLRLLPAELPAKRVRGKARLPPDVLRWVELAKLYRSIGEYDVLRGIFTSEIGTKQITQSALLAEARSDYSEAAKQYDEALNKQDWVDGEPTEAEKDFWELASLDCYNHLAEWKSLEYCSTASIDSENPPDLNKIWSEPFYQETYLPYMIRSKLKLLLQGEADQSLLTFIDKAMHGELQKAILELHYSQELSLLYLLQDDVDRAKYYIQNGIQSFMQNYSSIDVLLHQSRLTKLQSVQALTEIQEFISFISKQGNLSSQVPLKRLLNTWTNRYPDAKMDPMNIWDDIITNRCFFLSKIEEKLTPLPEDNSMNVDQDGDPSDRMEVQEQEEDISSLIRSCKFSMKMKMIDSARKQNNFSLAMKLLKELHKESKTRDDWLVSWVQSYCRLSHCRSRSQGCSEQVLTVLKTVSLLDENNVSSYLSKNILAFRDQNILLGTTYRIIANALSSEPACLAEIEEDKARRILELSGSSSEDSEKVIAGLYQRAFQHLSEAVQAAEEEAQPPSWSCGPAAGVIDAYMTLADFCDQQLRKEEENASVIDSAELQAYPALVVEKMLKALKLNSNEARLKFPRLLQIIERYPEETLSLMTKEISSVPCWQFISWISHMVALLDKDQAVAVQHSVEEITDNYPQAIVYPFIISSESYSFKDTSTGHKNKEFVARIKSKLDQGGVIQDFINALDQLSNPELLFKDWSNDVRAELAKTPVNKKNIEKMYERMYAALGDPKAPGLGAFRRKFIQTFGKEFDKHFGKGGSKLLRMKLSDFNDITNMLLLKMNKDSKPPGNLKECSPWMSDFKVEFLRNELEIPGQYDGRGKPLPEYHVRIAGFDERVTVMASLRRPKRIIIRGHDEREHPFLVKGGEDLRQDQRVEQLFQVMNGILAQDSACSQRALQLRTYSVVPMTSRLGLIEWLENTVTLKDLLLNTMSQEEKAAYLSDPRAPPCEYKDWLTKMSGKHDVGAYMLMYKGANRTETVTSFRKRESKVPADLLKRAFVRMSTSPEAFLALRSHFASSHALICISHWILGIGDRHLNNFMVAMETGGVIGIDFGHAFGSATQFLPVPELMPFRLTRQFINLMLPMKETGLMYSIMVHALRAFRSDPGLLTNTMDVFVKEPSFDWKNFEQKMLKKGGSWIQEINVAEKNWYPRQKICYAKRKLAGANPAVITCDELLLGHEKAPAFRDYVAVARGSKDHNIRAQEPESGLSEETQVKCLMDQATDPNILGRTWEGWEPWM
UniProt P02769, residues 25-607: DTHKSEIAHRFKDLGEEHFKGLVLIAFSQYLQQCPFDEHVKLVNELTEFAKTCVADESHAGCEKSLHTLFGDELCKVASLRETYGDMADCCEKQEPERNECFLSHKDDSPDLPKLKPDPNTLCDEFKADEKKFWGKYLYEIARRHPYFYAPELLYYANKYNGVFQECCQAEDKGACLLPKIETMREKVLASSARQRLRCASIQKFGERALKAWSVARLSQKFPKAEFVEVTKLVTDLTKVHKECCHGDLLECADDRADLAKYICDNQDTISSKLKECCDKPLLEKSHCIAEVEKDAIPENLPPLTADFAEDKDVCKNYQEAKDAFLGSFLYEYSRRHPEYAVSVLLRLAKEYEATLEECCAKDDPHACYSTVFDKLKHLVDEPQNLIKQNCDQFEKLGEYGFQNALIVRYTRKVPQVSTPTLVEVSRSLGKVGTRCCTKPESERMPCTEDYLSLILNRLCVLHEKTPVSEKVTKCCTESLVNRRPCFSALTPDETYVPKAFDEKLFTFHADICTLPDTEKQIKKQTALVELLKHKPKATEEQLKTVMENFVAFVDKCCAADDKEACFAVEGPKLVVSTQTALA

Key:
[1] = target: DNA-dependent protein kinase catalytic subunit (DNA-PKcs) (human (endogenous in HeLa)) (UniProt P78527)
[2] = target: T1, GST-APLF R182E/K183E/R184E (human) (UniProt Q8IW19)
T1 sequence: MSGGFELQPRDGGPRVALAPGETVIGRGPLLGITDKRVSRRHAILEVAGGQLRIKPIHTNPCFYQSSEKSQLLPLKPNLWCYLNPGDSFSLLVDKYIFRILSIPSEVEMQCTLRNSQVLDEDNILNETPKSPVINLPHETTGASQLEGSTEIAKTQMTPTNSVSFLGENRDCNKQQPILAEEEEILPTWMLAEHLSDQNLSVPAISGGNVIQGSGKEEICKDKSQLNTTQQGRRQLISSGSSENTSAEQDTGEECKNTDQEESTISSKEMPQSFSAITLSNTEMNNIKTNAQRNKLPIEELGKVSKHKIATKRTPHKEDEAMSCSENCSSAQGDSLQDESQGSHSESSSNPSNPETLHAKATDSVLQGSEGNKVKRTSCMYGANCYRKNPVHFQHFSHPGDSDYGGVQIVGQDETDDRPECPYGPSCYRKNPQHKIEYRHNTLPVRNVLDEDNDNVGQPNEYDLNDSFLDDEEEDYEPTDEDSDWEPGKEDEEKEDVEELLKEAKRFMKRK

GST-APLF W189G (human) = GST-APLF W189G (human) (UniProt Q8IW19)

binding [2]	binding (GST-APLF W189G (human))	Substance	binding [1]
–	–	BSA (from UniProt P02769 25-607)	no binding (tested: 6, 12, or 24 pmol of BSA)
no binding	no binding	DNA-dependent protein kinase catalytic subunit (DNA-PKcs) (from UniProt P78527 1-4128) (enzyme)	–
